{"sequences": {"note": "Protein sequences, listed by entry. Tags and fused reporters are not part of them.", "UniProt P27695, whole entry, looked up": "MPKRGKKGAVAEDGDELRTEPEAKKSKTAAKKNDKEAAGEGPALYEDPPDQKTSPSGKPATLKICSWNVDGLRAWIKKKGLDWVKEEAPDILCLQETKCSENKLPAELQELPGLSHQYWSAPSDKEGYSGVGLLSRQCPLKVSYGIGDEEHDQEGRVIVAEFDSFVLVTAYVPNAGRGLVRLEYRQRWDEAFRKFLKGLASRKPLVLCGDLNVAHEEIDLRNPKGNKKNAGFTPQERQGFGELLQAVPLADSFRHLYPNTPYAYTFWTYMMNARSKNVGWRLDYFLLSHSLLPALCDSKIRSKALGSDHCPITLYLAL"}, "source": "PubChem BioAssay AID2517", "about": "(National Center for Advancing Translational Sciences (NCATS), 2010)", "note": "Several values for one entry are separate records, joined by “and”; a condition that tells them apart may be missing. Equal values may be shown once. The campaign covered roughly 350,000 compounds. About 1,200 (0.34%) were called active. Inconclusive results, whose numbers are uncertain, are shown with a selection of clear calls. Calls follow the shape of the dose curve; as a rule, active = well fitted inhibition curve with a large enough effect; inconclusive = small, poorly fitted or top-dose-only effect; inactive = no such curve, though single readings can be large or run the other way. Potencies of inconclusive entries are doubtful fits and often do not repeat. Potency is read from the fitted curve at half-maximal effect."}
{"target": "DNA repair nuclease/redox regulator APEX1 (Homo sapiens) (UniProt P27695)", "experiment": "qHTS Assay for Inhibitors of the Human Apurinic/apyrimidinic Endonuclease 1 (APE1); also: nearly all actives have a fitted effect of over 55% in size;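 as to activity change, negative = inhibition: plate controls were vehicle for no effect and reference inhibitor for full effect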", "conditions": "recombinant APE1, TAMRA/BHQ-2 abasic DNA cleavage fluorescence; activity change, negative = inhibition: at 65.8 µM (top of the series)", "how_it_was_run": "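Activity was derived from the fluorescence gain between first and third kinetic reads (60 s intervals, ex 525/em 598 nm) after 50 nM THF-abasic TAMRA/BHQ-2 duplex was added to 0.75 nM APE1 preincubated 15 min with compound.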"}
{"smiles": "COc1ccc(N2C(=O)CC(NCc3ccc(F)cc3)C2=O)cc1", "note": "(stereo unspecified)", "Potency": "inconclusive: 0.708 µM [inhibitor, full curve, poor fit]"}
{"smiles": "CN(c1ccccc1)S(=O)(=O)c1cccc(NC(=O)c2cccc(C#N)c2)c1", "Potency": "inactive"}
{"smiles": "CCN1CCCC1CNC(=O)c1cc2c(C)nc3ccccc3c2o1", "note": "(stereo unspecified)", "Potency": "inconclusive: 20 µM [inhibitor, partial curve, poor fit]"}
{"smiles": "O=C(O)COc1ccccc1/C=N/Nc1ccc(S(=O)(=O)Nc2ccc(Cl)cc2)cc1[N+](=O)[O-]", "Potency": "inconclusive: 39.8 µM [inhibitor, single point]"}
{"smiles": "Cc1cc(C(=O)OCC(=O)c2ccc(Cl)c([N+](=O)[O-])c2)c2cccc(C)c2n1", "Potency": "inconclusive: 28.2 µM [inhibitor, partial curve]"}
{"smiles": "O=C1NC(=S)S/C1=C\\c1ccc2ccccc2c1", "Potency": "inconclusive: 33.6 µM [inhibitor, single point]"}
{"smiles": "COc1ccc(OC2C=CC(c3ccccc3)OC2CO)cc1", "note": "(stereo unspecified)", "Potency": "inconclusive: 5.01 µM [inhibitor, single point]"}
{"smiles": "Cc1nc(SCC(=O)NCc2cccs2)nc(C)c1C", "Potency": "inconclusive: 4.47 µM [inhibitor, single point]"}
{"smiles": "COc1cc2cc3c(N)c(C(=O)Nc4sc(C)c(C)c4C#N)sc3nc2cc1OC", "Potency": "active: 12.6 µM"}
{"smiles": "CC(=O)Nc1cccc(C(=O)Nc2cccnc2)c1", "Potency": "inconclusive: 39.8 µM [inhibitor, single point]"}
{"smiles": "NC(=O)[C@H]1CC2(CC(c3cccc(NC(=O)[C@H]4CCC(=O)N4)c3)=NO2)CN1C(=O)c1ccccc1", "note": "(stereo partly specified)", "Potency": "inconclusive: 17.8 µM [inhibitor, partial curve]"}
{"smiles": "Cc1nc2ccccc2c(=O)n1/N=C/c1ccc(O)cc1O", "Potency": "inactive"}
{"smiles": "O=C(Nc1ccc(NC(=O)c2cccc([N+](=O)[O-])c2)cc1)c1cccc([N+](=O)[O-])c1", "Potency": "inactive"}
{"smiles": "Cc1cc(NC(=O)c2ccc(S(=O)(=O)Nc3ccccc3)cc2)no1", "Potency": "inconclusive: 31.6 µM [inhibitor, single point]"}
{"smiles": "O=C(COC(=O)/C=C/c1ccc(Br)o1)Nc1ccccc1F", "Potency": "inconclusive: 35.5 µM [inhibitor, single point]"}
{"smiles": "CC1=CCC2C(=O)N(c3nc4ccccc4n3C)C(=O)C2C1", "note": "(stereo unspecified)", "Potency": "inconclusive: 11.2 µM [inhibitor, partial curve, poor fit]"}
{"smiles": "Cc1ccc(NC(=O)C(C)N=C2NS(=O)(=O)c3ccccc32)cc1", "note": "(stereo unspecified)", "Potency": "inconclusive: 44.7 µM [inhibitor, single point]"}
{"smiles": "COc1cccc(-c2cc(C(=O)N3C(C)CCCC3C)no2)c1", "note": "(stereo unspecified)", "Potency": "inconclusive: 3.16 µM [inhibitor, full curve]"}
{"smiles": "CC1=CC2=NC(=O)/C(=C\\c3ccc(-c4cccc(Cl)c4)o3)C(=N)N2O1", "Potency": "inactive"}
{"smiles": "CSCC[C@H](NC(=O)c1ccc(Br)o1)c1nnc2ccccn12", "Potency": "inactive"}
{"smiles": "O=C1[C@H]2[C@H]3[C@H](O)[C@H](O)C/C(=N/OC[C@@H](O)COCc4ccco4)[C@@H]3CC[C@@H]2C(=O)N1C1CCCCC1", "Potency": "inconclusive: 3.55 µM [inhibitor, single point]"}
{"smiles": "CC1=C(C(N)=O)C(c2ccccc2)n2nc(-c3cccs3)nc2N1", "note": "(stereo unspecified)", "Potency": "inconclusive: 44.7 µM [inhibitor, single point]"}
{"smiles": "Cc1cc(C)cc(NC(=O)CSc2nc3c(c(=O)[nH]2)CN(Cc2ccc(F)cc2)CC3)c1", "Potency": "inconclusive: 28.2 µM [inhibitor, single point]"}
{"smiles": "CC(=O)N/C(=C\\c1ccc(Cl)cc1)C(=O)O", "Potency": "inconclusive: 4.47 µM [inhibitor, partial curve]"}
{"smiles": "Nc1c2ccccc2nc2ccccc12", "Potency": "inconclusive: 28.2 µM [inhibitor, partial curve] and inconclusive: 7.08 µM [inhibitor, partial curve]"}
{"smiles": "COCCOC(=O)c1[nH]c2c(c1C)C(=O)CC(c1ccco1)C2", "note": "(stereo unspecified)", "Potency": "active: 17.8 µM"}
{"smiles": "O=C(CSc1nnc(-c2ccc(C(F)(F)F)cn2)o1)Nc1ccccc1Cl", "Potency": "inactive"}
{"smiles": "Nn1c(SCC(=O)NC(=O)NCc2ccco2)nnc1-c1ccc(OC(F)F)cc1", "Potency": "inconclusive: 20 µM [inhibitor, single point]"}
{"smiles": "CC(C)=CC(=O)Oc1ccc(C(=O)N(C)c2ccccc2I)cc1", "Potency": "inactive"}
{"smiles": "COc1ccc(/C=N/NC(=O)CN(c2ccc(OC)cc2)S(=O)(=O)c2ccccc2)cc1", "Potency": "inconclusive: 31.6 µM [inhibitor, partial curve, poor fit]"}
{"smiles": "CC(=O)Nc1ccn(C2CC3OCC(NC(=O)C(NC(=O)OC(C)(C)C)C(C)OCc4ccccc4)C3O2)c(=O)n1", "note": "(stereo unspecified)", "Potency": "inactive"}
{"smiles": "Cc1ccc(S(=O)(=O)N2Cc3ccccc3CC2C(=O)Nc2ccc3c(c2)OCO3)cc1", "note": "(stereo unspecified)", "Potency": "inconclusive: 25.1 µM [inhibitor, single point]"}
{"smiles": "CC(=O)OC[C@@H]1O[C@@H](O/N=C2/C[C@@H](O)[C@@H](O)[C@@H]3[C@@H]4C(=O)N([C@@H](C)c5ccccc5)C(=O)[C@H]4CC[C@H]23)[C@H](OC(C)=O)[C@H](OC(C)=O)[C@@H]1OC(C)=O", "activity change, negative = inhibition": "inactive: 14% [at 12.4 µM]"}
{"smiles": "COc1cc(-c2nc(N)n[nH]2)cc(OC)c1OC", "Potency": "inconclusive: 44.7 µM [inhibitor, single point]"}
{"smiles": "COc1ccc(O)c(C(=O)c2cc(C(=O)NCCc3ccccc3)c(=O)n(CCc3ccccc3)c2)c1", "Potency": "inconclusive: 3.16 µM [inhibitor, single point]"}
{"smiles": "Cc1ccc(SCC(=O)NCCN2C(=O)CSC2=O)cc1C", "Potency": "inconclusive: 3.16 µM [inhibitor, partial curve]"}
{"smiles": "O=C(CNC(=O)c1ccc(S(=O)(=O)N2CCCC2)cc1)N/N=C/c1ccc(Cl)cc1Cl", "Potency": "inactive"}
{"smiles": "COc1ccc(OC)c(CNC(=O)C2CCCN(S(=O)(=O)N3CCC(C)CC3)C2)c1", "note": "(stereo unspecified)", "Potency": "inconclusive: 37.7 µM [inhibitor, single point]"}
{"smiles": "NCCCC[C@@H]1NC(=O)[C@H](CCC(=O)O)NC(=O)c2cc([N+](=O)[O-])cc(I)c2OCC[C@@H](C(N)=O)NC1=O", "Potency": "inconclusive: 10 µM [inhibitor, partial curve]"}
{"smiles": "Cc1ccc(NC(=O)CNc2ccc(N3CCOCC3)cc2)cc1S(=O)(=O)N(C)C", "Potency": "inconclusive: 0.316 µM [inhibitor, full curve, poor fit]"}
{"smiles": "CCOc1ccc(OCCSc2nc(C)cc(=O)[nH]2)cc1", "Potency": "inconclusive: 44.7 µM [inhibitor, single point]"}
{"smiles": "CC(C)/C=N/Nc1nc(-c2ccc(Br)cc2)cs1", "Potency": "inconclusive: 17.8 µM [inhibitor, partial curve]"}
{"smiles": "CC(C)COP(=O)(c1ccc(N(C)C)cc1)C(O)c1cccnc1", "note": "(stereo unspecified)", "Potency": "inconclusive: 10 µM [inhibitor, single point]"}
{"smiles": "COc1ccc2cc(-c3cc(C(=O)O)c4ccccc4n3)ccc2c1", "Potency": "inactive"}
{"smiles": "CC(C)N(C)C", "Potency": "inactive"}
{"smiles": "CCC(=O)OC1(C)C(=O)C=C2C=C(c3ccsc3)OC=C2C1=O", "note": "(stereo unspecified)", "Potency": "inactive and inconclusive: 31.6 µM [inhibitor, single point]"}
{"smiles": "CCN(CC)c1ccc(C(=C2C=CC(=[N+](CC)Cc3cccc(S(=O)(=O)[O-])c3)C=C2)c2ccc(N(CC)Cc3cccc(S(=O)(=O)O)c3)cc2)cc1", "Potency": "inconclusive: 31.6 µM [inhibitor, partial curve]"}
{"smiles": "CC(=O)N1CCCC1(C(=O)O)c1ccccc1", "note": "(stereo unspecified)", "Potency": "inconclusive: 10 µM [inhibitor, single point]"}
{"smiles": "COC(=O)NC(c1cccs1)C(C(C)=O)C(=O)OC", "note": "(stereo unspecified)", "Potency": "inconclusive: 3.16 µM [inhibitor, partial curve, poor fit]"}
{"smiles": "CCOC(=O)c1c(C)oc2ccc(OCC(=O)C(C)(C)C)cc12", "Potency": "inconclusive: 1 µM [inhibitor, full curve, poor fit]"}
{"smiles": "CC(C)CC(=O)Nc1ccc(C(=O)COC(=O)CN2C(=O)NC3(CCCCC3C)C2=O)cc1", "note": "(stereo unspecified)", "Potency": "inconclusive: 11.9 µM [inhibitor, partial curve]"}
{"smiles": "O=C(C1CCCCC1)N1CCc2[nH]c3ccc(F)cc3c2C1", "Potency": "inconclusive: 0.224 µM [inhibitor, full curve, poor fit]"}
{"smiles": "COc1ccc2[nH]cc(CCNc3ncncc3-c3ccc(C(=O)N(C)C)cc3)c2c1", "Potency": "inactive"}
{"smiles": "COc1ccc(NC(=O)CN(c2ccccc2)S(=O)(=O)N(C)C)cc1OC", "Potency": "inconclusive: 39.8 µM [inhibitor, single point]"}
{"smiles": "NC(=O)[C@@H]1CCCNc2c(I)cc([N+](=O)[O-])cc2C(=O)N[C@@H](CO)C(=O)N[C@@H](Cc2ccc(O)cc2)C(=O)N1", "Potency": "inconclusive: 4.47 µM [inhibitor, single point]"}
{"smiles": "CCC(C)Sc1nc(O)c(Cc2ccccc2)c(=O)[nH]1", "note": "(stereo unspecified)", "Potency": "inconclusive: 3.98 µM [inhibitor, single point]"}
{"smiles": "Nc1nc2ncc(CNc3ccc(C(=O)N[C@@H](CCC(=O)O)C(=O)O)cc3)nc2c(=O)[nH]1", "Potency": "inconclusive: 35.5 µM [inhibitor, partial curve]"}
{"smiles": "O=C(CCc1ccc(S(=O)(=O)N2CCOCC2)cc1)N/N=C/c1ccc(O)c(O)c1O", "Potency": "inconclusive: 7.08 µM [inhibitor, single point]"}
{"smiles": "O=c1c(O[C@@H]2O[C@H](CO)[C@H](O)[C@H](O)[C@H]2O)c(-c2ccc(O)c(O)c2)oc2cc(O)cc(O)c12", "Potency": "inconclusive: 5.01 µM [inhibitor, full curve]"}
{"smiles": "COc1ccc(NC(=O)C(CCSC)N2C(=O)c3ccccc3C2=O)cc1", "note": "(stereo unspecified)", "Potency": "inconclusive: 3.55 µM [inhibitor, single point]"}
{"smiles": "N#C/C(=C\\c1ccc(N2CCOCC2)o1)C(=O)N1CCOCC1", "Potency": "inconclusive: 20 µM [inhibitor, single point]"}
